Some of the results follow. Single values are uncertain, as repeats are few or missing.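 The apoptosis fraction was the count of cleaved-PARP antibody-stained nuclei relative to all DNA-stained nuclei, imaged in 1,536-well plates. Screening doses were set so most cells survived, and baseline and induced cleaved-PARP levels vary greatly across cell lines.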
How the values were obtained:
Assay in all cases: cleaved PARP positive nuclei fraction relative to DMSO control; melanoma cells; higher = more apoptosis
Conditions in all cases: library dose: low library concentration; 72 h
COLO792 = system: COLO792
COLO800 = system: COLO800
COLO829 = system: COLO829
G361 = system: G361
IPC-298 = system: IPC-298
IST-MEL1 = system: IST-MEL1
LB2518-MEL = system: LB2518-MEL
LOXIMVI = system: LOXIMVI
CBRC034 = system: CBRC034 (line from a melanoma biopsy)
MEL-HO = system: MEL-HO

SMILES	cleaved PARP positive nuclei fraction (COLO792) [%]	cleaved PARP positive nuclei fraction (COLO800) [%]	cleaved PARP positive nuclei fraction (COLO829) [%]	cleaved PARP positive nuclei fraction (G361) [%]	cleaved PARP positive nuclei fraction (IPC-298) [%]	cleaved PARP positive nuclei fraction (IST-MEL1) [%]	cleaved PARP positive nuclei fraction (LB2518-MEL) [%]	cleaved PARP positive nuclei fraction (LOXIMVI) [%]	cleaved PARP positive nuclei fraction (CBRC034) [%]	cleaved PARP positive nuclei fraction (MEL-HO) [%]
CC(=O)O[C@@]12CO[C@@H]1C[C@H](O)[C@@]1(C)C(=O)[C@H](O)C3=C(C)[C@@H](OC(=O)[C@H](O)[C@@H](NC(=O)OC(C)(C)C)c4ccccc4)C[C@@](O)([C@@H](OC(=O)c4ccccc4)[C@H]21)C3(C)C [Docetaxel] + CCc1ccc(CCOc2ccc(CC3SC(=O)NC3=O)cc2)nc1 [pioglitazone] (first compound 0.0001 µM, partner dose 2 µM)	534	61.4	219	312	417	241	66.5	105	–	–
CC1(C)CCC(c2ccc(Cl)cc2)=C(CN2CCN(c3ccc(C(=O)NS(=O)(=O)c4ccc(N[C@H](CCN5CCOCC5)CSc5ccccc5)c(S(=O)(=O)C(F)(F)F)c4)cc3)CC2)C1 + CCCCCCCCCCCC1=C(O)C(=O)C=C(O)C1=O [Embelin] (first compound 0.4 µM, partner dose 1.2 µM)	420	137	26.3	150	230	71.1	155	215	–	–
CC1(C)CCC(c2ccc(Cl)cc2)=C(CN2CCN(c3ccc(C(=O)NS(=O)(=O)c4ccc(N[C@H](CCN5CCOCC5)CSc5ccccc5)c(S(=O)(=O)C(F)(F)F)c4)cc3)CC2)C1 + O=C(Nc1ccccc1)c1cc([N+](=O)[O-])ccc1Cl [GW9662] (first compound 0.4 µM, partner dose 2 µM)	175	295	320	214	113	103	21	102	–	–
CC(=O)O[C@@]12CO[C@@H]1C[C@H](O)[C@@]1(C)C(=O)[C@H](O)C3=C(C)[C@@H](OC(=O)[C@H](O)[C@@H](NC(=O)OC(C)(C)C)c4ccccc4)C[C@@](O)([C@@H](OC(=O)c4ccccc4)[C@H]21)C3(C)C [Docetaxel] + Oc1cc(-c2nc(-c3ccccc3)[nH]c2-c2ccncc2)ccc1Cl [L779450] (first compound 0.0001 µM, partner dose 0.2 µM)	869	270	192	668	584	213	148	134	–	–
Cn1cnc2c(F)c(Nc3ccc(Br)cc3Cl)c(C(=O)NOCCO)cc21 [selumetinib] + O=c1cc(-c2cccc3c2Sc2ccccc2S3)oc(N2CCOCC2)c1 [KU55933] (first compound 0.015 µM, partner dose 1 µM)	208	96.2	149	46.2	200	99.8	46.3	158	–	–
CN(c1ncccc1CNc1nc(Nc2ccc3c(c2)CC(=O)N3)ncc1C(F)(F)F)S(C)(=O)=O + Oc1cc(-c2nc(-c3ccccc3)[nH]c2-c2ccncc2)ccc1Cl [L779450] (first compound 0.08 µM, partner dose 0.2 µM)	118	90	61.1	79.9	57.7	84.2	86.7	104	–	–
Cn1cnc2c(F)c(Nc3ccc(Br)cc3Cl)c(C(=O)NOCCO)cc21 [selumetinib] + O=S(=O)(c1ccccc1)N(CC(F)(F)F)c1ccc(C(O)(C(F)(F)F)C(F)(F)F)cc1 [T0901317] (first compound 0.015 µM, partner dose 1.4 µM)	57.3	62.7	78	76.9	71.8	211	112	96.3	–	–
Cn1cnc2c(F)c(Nc3ccc(Br)cc3Cl)c(C(=O)NOCCO)cc21 [selumetinib] + COC(=O)c1sccc1S(=O)(=O)Nc1ccc(Nc2ccccc2)cc1OC [GSK0660] (first compound 0.015 µM, partner dose 1 µM)	97.4	44.8	20.7	149	65.7	98.2	228	61.1	–	–
CC(=O)O[C@@]12CO[C@@H]1C[C@H](O)[C@@]1(C)C(=O)[C@H](O)C3=C(C)[C@@H](OC(=O)[C@H](O)[C@@H](NC(=O)OC(C)(C)C)c4ccccc4)C[C@@](O)([C@@H](OC(=O)c4ccccc4)[C@H]21)C3(C)C [Docetaxel] + O=S(=O)(c1ccccc1)N(CC(F)(F)F)c1ccc(C(O)(C(F)(F)F)C(F)(F)F)cc1 [T0901317] (first compound 0.0001 µM, partner dose 1.4 µM)	294	115	346	569	143	53.8	208	311	–	–
C[C@@H](N)c1ccc(C(=O)Nc2ccnc3[nH]ccc23)cc1 + CCCCCCCCCCCC1=C(O)C(=O)C=C(O)C1=O [Embelin] (first compound 0.4 µM, partner dose 1.2 µM)	140	42.5	159	120	322	105	143	129	–	–
CC1(C)CCC(c2ccc(Cl)cc2)=C(CN2CCN(c3ccc(C(=O)NS(=O)(=O)c4ccc(N[C@H](CCN5CCOCC5)CSc5ccccc5)c(S(=O)(=O)C(F)(F)F)c4)cc3)CC2)C1 + Oc1cc(-c2nc(-c3ccccc3)[nH]c2-c2ccncc2)ccc1Cl [L779450] (first compound 0.4 µM, partner dose 0.2 µM)	619	94.5	115	248	165	102	199	542	–	–
CN(c1ncccc1CNc1nc(Nc2ccc3c(c2)CC(=O)N3)ncc1C(F)(F)F)S(C)(=O)=O + Cc1cc([N+](=O)[O-])ccc1NS(=O)(=O)c1cc(Cl)ccc1Cl [FH535] (first compound 0.08 µM, partner dose 1 µM)	223	64.7	122	78	145	96.2	85.2	64.2	–	–
Cn1sc(=O)n(Cc2ccccc2)c1=O + COc1cc2ncnc(Nc3ccc(Oc4ccccc4)cc3)c2cc1OC [SrcI1] (first compound 0.4 µM, partner dose 2 µM)	75.6	85.4	20.6	145	104	66.4	135	110	–	–
C[C@]1(O)C[C@@H](c2nc(-c3ccc4ccc(-c5ccccc5)nc4c3)c3c(N)nccn32)C1 + Cc1cc([N+](=O)[O-])ccc1NS(=O)(=O)c1cc(Cl)ccc1Cl [FH535] (first compound 0.4 µM, partner dose 1 µM)	88.2	86.6	46.5	123	105	134	88.5	58.1	–	–
CC1(C)CCC(c2ccc(Cl)cc2)=C(CN2CCN(c3ccc(C(=O)NS(=O)(=O)c4ccc(N[C@H](CCN5CCOCC5)CSc5ccccc5)c(S(=O)(=O)C(F)(F)F)c4)cc3)CC2)C1 + COc1cc(N2CCC(N3CCN(C)CC3)CC2)ccc1Nc1ncc(Cl)c(Nc2ccccc2S(=O)(=O)C(C)C)n1 [NVP-TAE684] (first compound 0.4 µM, partner dose 0.08 µM)	477	139	128	152	189	91	234	179	–	–
CCN(CC)CCNC(=O)c1c(C)[nH]c(/C=C2\C(=O)Nc3ccc(F)cc32)c1C [sunitinib] + COc1cc2ncnc(Nc3ccc(Oc4ccccc4)cc3)c2cc1OC [SrcI1] (first compound 0.4 µM, partner dose 2 µM)	86.6	104	60.8	87.8	81.4	124	58	94.1	–	–
NC(=O)c1ccc(N(C(N)=O)c2c(F)cccc2F)nc1-c1ccc(F)cc1F + COCC[n+]1c2c(n(Cc3cnccn3)c1C)C(=O)c1ccccc1C2=O [YM155] (first compound 0.4 µM, partner dose 0.0004 µM)	82.5	182	85.3	83	195	75	–	141	88.4	61.9
CS(=O)(=O)c1ccc(C(=O)Nc2ccc(Cl)c(-c3ccccn3)c2)c(Cl)c1 [vismodegib] + COc1cc2ncnc(Nc3ccc(Oc4ccccc4)cc3)c2cc1OC [SrcI1] (first compound 1 µM, partner dose 2 µM)	71.7	185	41.7	133	50.2	141	55.9	114	–	–
CN(c1ncccc1CNc1nc(Nc2ccc3c(c2)CC(=O)N3)ncc1C(F)(F)F)S(C)(=O)=O + CCc1ccc(CCOc2ccc(CC3SC(=O)NC3=O)cc2)nc1 [pioglitazone] (first compound 0.08 µM, partner dose 2 µM)	117	76.3	45.6	110	125	55	71	109	–	–
C[C@@H](N)c1ccc(C(=O)Nc2ccnc3[nH]ccc23)cc1 + COC(=O)c1sccc1S(=O)(=O)Nc1ccc(Nc2ccccc2)cc1OC [GSK0660] (first compound 0.4 µM, partner dose 1 µM)	217	72.2	81	121	962	88.5	118	388	–	–
Cn1sc(=O)n(Cc2ccccc2)c1=O + Oc1cc(-c2nc(-c3ccccc3)[nH]c2-c2ccncc2)ccc1Cl [L779450] (first compound 0.4 µM, partner dose 0.2 µM)	70.3	172	95.1	72.6	105	204	151	71.1	–	–
NC(=O)c1ccc(N(C(N)=O)c2c(F)cccc2F)nc1-c1ccc(F)cc1F + O=c1cc(-c2cccc3c2Sc2ccccc2S3)oc(N2CCOCC2)c1 [KU55933] (first compound 0.4 µM, partner dose 1 µM)	103	172	121	86.2	72.5	118	26.1	89.6	–	–

Retrieved one by one from above, 2 records:
SMILES	cleaved PARP positive nuclei fraction (COLO792) [%]	cleaved PARP positive nuclei fraction (COLO800) [%]	cleaved PARP positive nuclei fraction (COLO829) [%]	cleaved PARP positive nuclei fraction (G361) [%]	cleaved PARP positive nuclei fraction (IPC-298) [%]	cleaved PARP positive nuclei fraction (IST-MEL1) [%]	cleaved PARP positive nuclei fraction (LB2518-MEL) [%]	cleaved PARP positive nuclei fraction (LOXIMVI) [%]	cleaved PARP positive nuclei fraction (CBRC034) [%]	cleaved PARP positive nuclei fraction (MEL-HO) [%]
CC1(C)CCC(c2ccc(Cl)cc2)=C(CN2CCN(c3ccc(C(=O)NS(=O)(=O)c4ccc(N[C@H](CCN5CCOCC5)CSc5ccccc5)c(S(=O)(=O)C(F)(F)F)c4)cc3)CC2)C1 + Oc1cc(-c2nc(-c3ccccc3)[nH]c2-c2ccncc2)ccc1Cl [L779450] (first compound 0.4 µM, partner dose 0.2 µM)	619	94.5	115	248	165	102	199	542	–	–
CC1(C)CCC(c2ccc(Cl)cc2)=C(CN2CCN(c3ccc(C(=O)NS(=O)(=O)c4ccc(N[C@H](CCN5CCOCC5)CSc5ccccc5)c(S(=O)(=O)C(F)(F)F)c4)cc3)CC2)C1 + O=C(Nc1ccccc1)c1cc([N+](=O)[O-])ccc1Cl [GW9662] (first compound 0.4 µM, partner dose 2 µM)	175	295	320	214	113	103	21	102	–	–

From the supplement of paper PMC4604168 (melanoma cell lines)
